# Laboratory results: the supplement of paper PMC12009310
# Several values for one entry are separate records, joined by “and”; a condition that tells them apart may be missing. Equal entries are not always repeated. Structures can show the parent of a compound that is named as a salt. ± gives the standard deviation of the averaged measurements. The list shows a part of the results. Part of the spread comes from offsets between plates or batches.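 The cells are a mouse kidney inner medullary collecting duct line, silenced either for the ciliary gene Rpgrip1l or with a non-targeting control siRNA.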
# Tested on: mIMCD3
# Experiment: robust z score of cell number vs plate controls; higher = more cells (less cytotoxic)
# Conditions: 10 µM; 48 h; siRNA: siRpgrip1l
row,Compound,robust z score of cell number
1,Oc1cc2c(cc1O)CN(C(=S)NCCc1ccc(Cl)cc1)CCC2 [Capsazepine],-126 ± 100
2,CNCCCCOc1ccccc1Cc1ccccc1 [Bifemelane hydrochloride],-36.2 ± 12
3,COc1ccc(Br)cc1S(=O)(=O)NC(=O)/C=C/c1ccccc1Cc1ccc2ccccc2c1,-31.8 ± 30
4,CC#CCOC(=O)C1=CCCN(C)C1 [Arecaidine but-2-ynyl ester tosylate],2.08 ± 8.8
5,O=C(O)Cc1nn(Cc2ccc(Br)cc2F)c(=O)c2ccccc12 [Statil],-2.09 ± 3.8
6,CN1Cc2c(C(=O)OC(C)(C)C)ncn2-c2ccsc2C1=O,1.29 ± 3.3
7,O=C1c2ccccc2CCC1CNCCc1ccc(O)cc1 (stereo not drawn) [HEAT hydrochloride],-45 ± 29
8,COc1ccc(-c2nc(C(=O)N3CCN(C)CC3)sc2-c2ccc(OC)cc2)cc1,-134 ± 130
9,Cc1ccccc1C(=O)c1ccc(Nc2ccc(Br)cc2N)cc1Cl,-31.6 ± 30
10,Cc1ccc(NC2=CC(=O)c3sc(C)nc3C2=O)cc1 [Ryuvidine],-33.1 ± 11
11,CCc1c2c(nc3ccc(OC(=O)N4CCC(N5CCCCC5)CC4)cc13)-c1cc3c(c(=O)n1C2)COC(=O)[C@]3(O)CC,-25.2 ± 24
12,CC(Cc1ccccc1)(NC(=O)CN)c1ccccc1 (stereo not drawn) [Remacemide hydrochloride],-23.6 ± 24
13,N=C(N)SCCc1ccc(OCc2ccc([N+](=O)[O-])cc2)cc1 [KB-R7943 mesylate],-306 ± 220
14,Cc1ccc(NC(=O)C(C)C)cc1C1CCN(Cc2ccc(Oc3ccc(F)c(F)c3)cc2)CC1,-31 ± 29
15,NCCCCCc1c[nH]cn1 [Impentamine dihydrobromide],-0.0316 ± 1.7
16,OC(CNCC(O)C1CCc2cc(F)ccc2O1)C1CCc2cc(F)ccc2O1 (stereo not drawn) [Nebivolol hydrochloride],-31.7 ± 30
17,OCC(CO)N[C@H]1C[C@](O)(CO)[C@@H](O)[C@H](O)[C@H]1O [Voglibose],-24.4 ± 30

row,Compound,robust z score of cell number
1,CC(C)NCC(O)COc1ccc(COCCOC(C)C)cc1 (racemic) [(±)-Bisoprolol hemifumarate],-2.08 ± 0.48
2,CCCCCCCCc1ccc(-c2ccc(C(=O)O)cc2)cc1,-18 ± 9.2
3,COc1ccc(C(=O)Nc2sc3c(c2C(N)=O)CCCC3)cc1OC,-8.67 ± 7.2
4,CN1CCN(C2=Nc3cc(Cl)ccc3Nc3ccccc32)CC1 [Clozapine],-3.85 ± 0.33
5,O=C(NCCCN1CCCCCC1)C(c1ccccc1)C1CCCCC1 (stereo not drawn),-17.5 ± 16
6,CC1=C(/C=C/C(C)=C/C=C/C(C)=C/C(=O)Nc2ccc(O)cc2)C(C)(C)CCC1 [Fenretinide],-305 ± 220
7,CCCc1c(OCC(O)COc2ccc3c(=O)cc(C(=O)O)oc3c2CCC)ccc(C(C)=O)c1O (stereo not drawn),-4.74 ± 1.1
8,NC(N)=NC(N)=Nc1cccc(Cl)c1 [m-Chlorophenylbiguanide hydrochloride],-36.4 ± 43
9,N[C@@H](Cn1ccc(=O)n(Cc2ccccc2C(=O)O)c1=O)C(=O)O,1.04 and 1.9
10,Nc1ncn([C@H]2C[C@H](O)[C@@H](CO)O2)c(=O)n1 [Decitabine],-26.2 ± 9.6
11,N[C@@H](CSS(=O)(=O)O)C(=O)O [S-Sulfo-L-cysteine sodium salt],6.94 ± 7.5
12,COC(=O)C1=C(C)NC(C)=C(C(=O)OCCCN2CCC(c3ccccc3)(c3ccccc3)CC2)[C@@H]1c1cccc([N+](=O)[O-])c1 [(R)-(-)-Niguldipine hydrochloride],-56.6 ± 45
13,CC(C)Oc1cccc(-n2c(CCc3c[nH]c4ccc(Br)cc34)nc3ccccc3c2=O)c1,-26.4 ± 0.81
14,O=C(NCCCN1CCC2(CC1)OCc1ccccc12)[C@H]1CCCN1Cc1ccccc1,-51.9 ± 65
15,CC1=C(/C=C/C(=C/C=C/C(C)=C/C(=O)O)c2ccc(C)cc2)C(C)(C)CCC1,-29.2 ± 8.4
16,COc1ccccc1OCCNCC(O)COc1cccc2[nH]c3ccccc3c12 (stereo not drawn) [Carvedilol],-29.2 ± 28
17,O=C(NCCO[N+](=O)[O-])c1cccnc1 [Nicorandil],-0.0121 ± 0.65

# Same assay, conditions: 10 µM; 48 h; siRNA: siScr
row,Compound,robust z score of cell number
1,Oc1cc2c(cc1O)CN(C(=S)NCCc1ccc(Cl)cc1)CCC2 [Capsazepine],-83.7 ± 45
2,CNCCCCOc1ccccc1Cc1ccccc1 [Bifemelane hydrochloride],-24.2 ± 3.9
3,COc1ccc(Br)cc1S(=O)(=O)NC(=O)/C=C/c1ccccc1Cc1ccc2ccccc2c1,-14.6 ± 13
4,CC#CCOC(=O)C1=CCCN(C)C1 [Arecaidine but-2-ynyl ester tosylate],-7.33 ± 3.8
5,O=C(O)Cc1nn(Cc2ccc(Br)cc2F)c(=O)c2ccccc12 [Statil],-1.49 ± 3.1
6,CN1Cc2c(C(=O)OC(C)(C)C)ncn2-c2ccsc2C1=O,-2.56 ± 2
7,O=C1c2ccccc2CCC1CNCCc1ccc(O)cc1 (stereo not drawn) [HEAT hydrochloride],-75 ± 61
8,COc1ccc(-c2nc(C(=O)N3CCN(C)CC3)sc2-c2ccc(OC)cc2)cc1,-36.2 ± 6.5
9,Cc1ccccc1C(=O)c1ccc(Nc2ccc(Br)cc2N)cc1Cl,-14.2 ± 13
10,Cc1ccc(NC2=CC(=O)c3sc(C)nc3C2=O)cc1 [Ryuvidine],-144 ± 110
11,CCc1c2c(nc3ccc(OC(=O)N4CCC(N5CCCCC5)CC4)cc13)-c1cc3c(c(=O)n1C2)COC(=O)[C@]3(O)CC,-12.2 ± 9.7
12,CC(Cc1ccccc1)(NC(=O)CN)c1ccccc1 (stereo not drawn) [Remacemide hydrochloride],-2.75 ± 2.2
13,N=C(N)SCCc1ccc(OCc2ccc([N+](=O)[O-])cc2)cc1 [KB-R7943 mesylate],-40.2 ± 9.1
14,Cc1ccc(NC(=O)C(C)C)cc1C1CCN(Cc2ccc(Oc3ccc(F)c(F)c3)cc2)CC1,-14.5 ± 13
15,NCCCCCc1c[nH]cn1 [Impentamine dihydrobromide],0.922 ± 5.5
16,OC(CNCC(O)C1CCc2cc(F)ccc2O1)C1CCc2cc(F)ccc2O1 (stereo not drawn) [Nebivolol hydrochloride],-14.6 ± 13
17,C[S+]([O-])c1ccc(-c2nc(-c3ccc(F)cc3)c(-c3ccncc3)[nH]2)cc1 (stereo not drawn),-8.4 and -7.23

row,Compound,robust z score of cell number
1,OCC(CO)N[C@H]1C[C@](O)(CO)[C@@H](O)[C@H](O)[C@H]1O [Voglibose],-3 ± 7.1
2,CC(C)NCC(O)COc1ccc(COCCOC(C)C)cc1 (racemic) [(±)-Bisoprolol hemifumarate],-6.13 ± 6.4
3,CCCCCCCCc1ccc(-c2ccc(C(=O)O)cc2)cc1,-18.2 ± 0.63
4,COc1ccc(C(=O)Nc2sc3c(c2C(N)=O)CCCC3)cc1OC,-47.1 ± 50
5,CN1CCN(C2=Nc3cc(Cl)ccc3Nc3ccccc32)CC1 [Clozapine],-7.09 ± 5.8
6,O=C(NCCCN1CCCCCC1)C(c1ccccc1)C1CCCCC1 (stereo not drawn),-10.7 ± 9.8
7,CC1=C(/C=C/C(C)=C/C=C/C(C)=C/C(=O)Nc2ccc(O)cc2)C(C)(C)CCC1 [Fenretinide],-40.3 ± 9.5
8,CCCc1c(OCC(O)COc2ccc3c(=O)cc(C(=O)O)oc3c2CCC)ccc(C(C)=O)c1O (stereo not drawn),-2.68 ± 1.9
9,NC(N)=NC(N)=Nc1cccc(Cl)c1 [m-Chlorophenylbiguanide hydrochloride],-14.5 ± 14
10,Nc1ncn([C@H]2C[C@H](O)[C@@H](CO)O2)c(=O)n1 [Decitabine],-115 ± 85
11,N[C@@H](CSS(=O)(=O)O)C(=O)O [S-Sulfo-L-cysteine sodium salt],1.99 ± 5.3
12,COC(=O)C1=C(C)NC(C)=C(C(=O)OCCCN2CCC(c3ccccc3)(c3ccccc3)CC2)[C@@H]1c1cccc([N+](=O)[O-])c1 [(R)-(-)-Niguldipine hydrochloride],-22.7 ± 4.9
13,CC(C)Oc1cccc(-n2c(CCc3c[nH]c4ccc(Br)cc34)nc3ccccc3c2=O)c1,-25.2 ± 12
14,O=C(NCCCN1CCC2(CC1)OCc1ccccc12)[C@H]1CCCN1Cc1ccccc1,-3.64 ± 4.7
15,CC1=C(/C=C/C(=C/C=C/C(C)=C/C(=O)O)c2ccc(C)cc2)C(C)(C)CCC1,-139 ± 110
16,COc1ccccc1OCCNCC(O)COc1cccc2[nH]c3ccccc3c12 (stereo not drawn) [Carvedilol],-13.3 ± 12
17,O=C(NCCO[N+](=O)[O-])c1cccnc1 [Nicorandil],-0.984 ± 0.96
